PubChem BioAssay AID1053208, Peter MacCallum Cancer Centre – 2014

Purpose: 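Synthetic lethal interactions between gene loss and doxorubicin in osteosarcoma cells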 (primary screen)
Cell system: mouse osteosarcoma cells, early-passage culture from an engineered mouse model of fibroblastic bone tumour
Reagents: siRNA pool against mouse genes, 40 nM
Time to read-out: about 120 h (48 h before drug, then 72 h with drug)
Challenge: doxorubicin 100 nM for 72 h, roughly 30-40% inhibitory dose
Read-out: 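Luminescent ATP signal taken as viability with or without 100 nM doxorubicin for 72 h; mean of two wells set against non-targeting siRNA and turned into robust z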
Direction: viability z-score with doxorubicin: higher = more viable cells under doxorubicin; viability z-score without drug: higher = more viable cells with knock-down alone
Hit rule: 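a pool counts as active when its viability z-score with doxorubicin is -2 or below and its z-score without drug lies between -2 and 2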
Shown is an unselected part of about 17,000 reagents tested. 788 of all reagents (4.7%) count as active. 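Calls rest on z-score classes alone; an extra cut-off of viability at most 70% of control was not applied to them.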 Further read-outs or replicates are left out here. Reagent sequences are not shown.

For Or51f1e (olfactory receptor family 51 subfamily F member 1E) [SID152277609], the entry reads combined z-score class no change with or without drug; viability z-score with doxorubicin -0.45; viability z-score without drug -1.85; inactive.
C1ra (complement component 1, r subcomponent A) [SID152320519] gave combined z-score class no change with or without drug; viability z-score with doxorubicin 0.67; viability z-score without drug 0.34; inactive.
Dab1 (disabled 1) [SID152264387] showed combined z-score class no change with or without drug; viability z-score with doxorubicin -0.22; viability z-score without drug 0; inactive.
Dab1 (disabled 1) [SID152267034] gave combined z-score class no change with or without drug; viability z-score with doxorubicin 1.12; viability z-score without drug 0; inactive.
Knock-down of Ugt1a6a (UDP glucuronosyltransferase 1 family, polypeptide A6A) [SID152269714] came out at: combined z-score class no change with or without drug; viability z-score with doxorubicin -1.12; viability z-score without drug -0.84; inactive.
Thap2 (THAP domain containing, apoptosis associated protein 2) [SID152285383] gave combined z-score class low cell count with doxorubicin only; viability z-score with doxorubicin -2.25; viability z-score without drug -1.18; active.
Silencing of Mtcp1 (mature T cell proliferation 1) [SID152281914] gave: combined z-score class no change with or without drug; viability z-score with doxorubicin -1.01; viability z-score without drug -0.51; inactive.
Elac1 (elaC ribonuclease Z 1) [SID152338497] showed combined z-score class no change with or without drug; viability z-score with doxorubicin -0.22; viability z-score without drug 0.17; inactive.
Against Apoc4 (apolipoprotein C-IV) [SID152296110], the values are combined z-score class no change with or without drug; viability z-score with doxorubicin 0.22; viability z-score without drug 0.17; inactive.
Cyp4a10 (cytochrome P450, family 4, subfamily a, polypeptide 10) [SID152301484] gave combined z-score class no change with or without drug; viability z-score with doxorubicin 0.22; viability z-score without drug 0.17; inactive.
After knock-down of Hs3st1 (heparan sulfate (glucosamine) 3-O-sulfotransferase 1) [SID152269069], the record shows combined z-score class no change with or without drug; viability z-score with doxorubicin 1.24; viability z-score without drug 0.51; inactive.
Silencing of Otof (otoferlin) [SID152331581] came out at: combined z-score class no change with or without drug; viability z-score with doxorubicin 1.35; viability z-score without drug 1.18; inactive.

Only “viability z-score with doxorubicin”, for 4 of the entries above:
Mtcp1 (mature T cell proliferation 1) [SID152281914] = -1.01
Elac1 (elaC ribonuclease Z 1) [SID152338497] = -0.22
Apoc4 (apolipoprotein C-IV) [SID152296110] = 0.22
Cyp4a10 (cytochrome P450, family 4, subfamily a, polypeptide 10) [SID152301484] = 0.22

Next records follow.
Silencing of Pmepa1 (prostate transmembrane protein, androgen induced 1) [SID152342669] came out at: combined z-score class no change with or without drug; viability z-score with doxorubicin 0.22; viability z-score without drug 1.52; inactive.
For Mrps22 (mitochondrial ribosomal protein S22) [SID152327499] the deposit lists combined z-score class no change with or without drug; viability z-score with doxorubicin -1.46; viability z-score without drug -1.18; inactive.
Nr2e3 (nuclear receptor subfamily 2, group E, member 3) [SID152266923] showed combined z-score class no change with or without drug; viability z-score with doxorubicin 0.34; viability z-score without drug 1.52; inactive.
Silencing of Haspin (histone H3 associated protein kinase) [SID152259531] gave: combined z-score class no change with or without drug; viability z-score with doxorubicin -0.67; viability z-score without drug -0.51; inactive.
Fdft1 (farnesyl diphosphate farnesyl transferase 1) [SID152330633] showed combined z-score class no change with or without drug; viability z-score with doxorubicin -0.67; viability z-score without drug -0.17; inactive.
Silencing of Chmp4b (charged multivesicular body protein 4B) [SID152264084] gave: combined z-score class low cell count with and without drug; viability z-score with doxorubicin -7.31; viability z-score without drug -4.22; inactive.
Knock-down of Gpr157 (G protein-coupled receptor 157) [SID152259411] gave: combined z-score class no change with or without drug; viability z-score with doxorubicin 1.01; viability z-score without drug 1.52; inactive.
With knock-down of Tas2r117 (taste receptor, type 2, member 117) [SID152302199], the record shows combined z-score class no change with or without drug; viability z-score with doxorubicin 1.57; viability z-score without drug 1.18; inactive.
Against Teddm1a (transmembrane epididymal protein 1A) [SID152276044] the deposit lists combined z-score class no change with or without drug; viability z-score with doxorubicin -1.12; viability z-score without drug 0; inactive.
For Tmc1 (transmembrane channel-like gene family 1) [SID152289355], the values are combined z-score class no change with or without drug; viability z-score with doxorubicin 0.34; viability z-score without drug -0.51; inactive.
With knock-down of Pten (phosphatase and tensin homolog) [SID152265594], the record shows combined z-score class no change with or without drug; viability z-score with doxorubicin 0.56; viability z-score without drug 0.51; inactive.
For Pten (phosphatase and tensin homolog) [SID152330521], the entry reads combined z-score class high cell count with doxorubicin only; viability z-score with doxorubicin 2.02; viability z-score without drug 0.51; inactive.
Against Bcl2a1a (B cell leukemia/lymphoma 2 related protein A1a) [SID152273464] the deposit lists combined z-score class no change with or without drug; viability z-score with doxorubicin -1.57; viability z-score without drug -0.67; inactive.
Rufy3 (RUN and FYVE domain containing 3) [SID152290875] showed combined z-score class no change with or without drug; viability z-score with doxorubicin -0.22; viability z-score without drug -0.67; inactive.
For Or1q1 (olfactory receptor family 1 subfamily Q member 1) [SID152302185], the entry reads combined z-score class no change with or without drug; viability z-score with doxorubicin -0.9; viability z-score without drug -0.84; inactive.
Depletion of Gmps (guanine monophosphate synthetase) [SID152311479] gave: combined z-score class no change with or without drug; viability z-score with doxorubicin 0.56; viability z-score without drug -0.84; inactive.
